Results published in patent US20020146774A1 (LUDWIG INSTITUTE FOR CANCER RESEARCH, published 2002).
Numbering of substitutions follows the chain as printed. Results are given in words; binding and its absence hold for the method and conditions named. Binding seen in cells or lysates may run through a third protein. Some binding calls cover weakened binding; strength is not graded here. Tags and fused reporters may be left off the sequences shown.

Protein sequences, listed by entry. Tags and fused reporters are not part of them. Lines headed by an entry give the natural chain unless they say otherwise; changes in a name come on top.
UniProt Q62432: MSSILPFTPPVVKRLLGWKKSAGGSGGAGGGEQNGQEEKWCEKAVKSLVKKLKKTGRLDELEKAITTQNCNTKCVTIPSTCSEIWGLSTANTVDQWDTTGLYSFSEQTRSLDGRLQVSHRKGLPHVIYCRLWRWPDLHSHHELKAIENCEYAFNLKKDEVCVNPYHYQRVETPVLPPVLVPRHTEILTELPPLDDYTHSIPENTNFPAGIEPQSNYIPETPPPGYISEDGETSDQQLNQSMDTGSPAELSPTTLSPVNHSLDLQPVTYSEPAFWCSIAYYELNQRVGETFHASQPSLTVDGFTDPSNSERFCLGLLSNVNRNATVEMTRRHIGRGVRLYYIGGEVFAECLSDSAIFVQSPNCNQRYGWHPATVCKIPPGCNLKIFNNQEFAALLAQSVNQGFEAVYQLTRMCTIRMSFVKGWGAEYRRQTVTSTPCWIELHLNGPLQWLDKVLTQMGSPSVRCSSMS

What was measured:
[1] = target: T1, wild-type TβR-I tagged at C-terminus with HA epitope (UniProt P36897); test: co-immunoprecipitation of 125I-TGF-β1 cross-linked receptors with Smad2 antiserum, COS-1 cells
T1 sequence (looked up): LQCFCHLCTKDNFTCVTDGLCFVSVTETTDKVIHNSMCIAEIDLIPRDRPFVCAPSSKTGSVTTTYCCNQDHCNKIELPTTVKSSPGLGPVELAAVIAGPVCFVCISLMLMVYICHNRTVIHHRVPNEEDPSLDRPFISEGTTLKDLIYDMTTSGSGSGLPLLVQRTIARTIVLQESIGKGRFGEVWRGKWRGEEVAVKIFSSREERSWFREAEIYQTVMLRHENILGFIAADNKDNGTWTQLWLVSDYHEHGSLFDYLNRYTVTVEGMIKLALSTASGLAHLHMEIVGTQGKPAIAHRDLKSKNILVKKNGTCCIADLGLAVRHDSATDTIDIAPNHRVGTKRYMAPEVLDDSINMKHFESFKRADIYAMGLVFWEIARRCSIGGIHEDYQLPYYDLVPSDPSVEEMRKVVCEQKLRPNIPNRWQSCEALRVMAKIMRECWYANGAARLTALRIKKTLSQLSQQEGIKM

[2] = target: T1, wild-type TβR-I tagged at C-terminus with HA epitope; test: co-immunoprecipitation
[3] = target: T1, wild-type TβR-I tagged at C-terminus with HA epitope; test: summary of the co-immunoprecipitation experiment
[4] = target: T2, kinase-inactive (K.R.) TβR-I tagged at C-terminus with HA epitope (UniProt P36897); test: co-immunoprecipitation of 125I-TGF-β1 cross-linked receptors with Smad2 antiserum, COS-1 cells
T2 sequence (phosphorylated by TβR-II kinase (sites not printed), looked up): T1 sequence (looked up) with K199R

[5] = target: T2, kinase-inactive (K.R.) TβR-I tagged at C-terminus with HA epitope; test: co-immunoprecipitation

binding [1] | binding [2] | binding [3] | binding [4] | binding [5] | Substance
binds | binds |  |  |  | Smad2/S464,465,467A (from UniProt Q62432 1-463)
binds | binds | binds |  |  | Smad2/S465A (from UniProt Q62432 1-467)
binds | binds | binds |  |  | Smad2/S467A (from UniProt Q62432 1-466)

The next lines start with the substance.

Substance | binding [1] | binding [2] | binding [3] | binding [4] | binding [5]
Smad2/S464A (from UniProt Q62432 1-467) | binds | binds | binds |  | 
Smad2/S465,467A (from UniProt Q62432 1-464) | binds | binds | binds |  | 
wild-type Smad2 (from UniProt Q62432 1-467) |  |  |  | binds | binds
